Consider 32 targets from the supplement of paper PMC10849652.

Protein sequences, listed by entry. Tags and fused reporters are not part of them. Lines headed by an entry give the natural chain unless they say otherwise; changes in a name come on top.
UniProt Q99497, whole entry, looked up: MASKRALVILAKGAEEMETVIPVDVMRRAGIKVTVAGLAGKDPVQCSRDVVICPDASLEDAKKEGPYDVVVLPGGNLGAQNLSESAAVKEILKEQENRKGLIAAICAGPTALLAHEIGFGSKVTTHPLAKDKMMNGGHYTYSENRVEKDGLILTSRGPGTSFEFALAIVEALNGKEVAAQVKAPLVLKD
UniProt Q13310, whole entry, looked up: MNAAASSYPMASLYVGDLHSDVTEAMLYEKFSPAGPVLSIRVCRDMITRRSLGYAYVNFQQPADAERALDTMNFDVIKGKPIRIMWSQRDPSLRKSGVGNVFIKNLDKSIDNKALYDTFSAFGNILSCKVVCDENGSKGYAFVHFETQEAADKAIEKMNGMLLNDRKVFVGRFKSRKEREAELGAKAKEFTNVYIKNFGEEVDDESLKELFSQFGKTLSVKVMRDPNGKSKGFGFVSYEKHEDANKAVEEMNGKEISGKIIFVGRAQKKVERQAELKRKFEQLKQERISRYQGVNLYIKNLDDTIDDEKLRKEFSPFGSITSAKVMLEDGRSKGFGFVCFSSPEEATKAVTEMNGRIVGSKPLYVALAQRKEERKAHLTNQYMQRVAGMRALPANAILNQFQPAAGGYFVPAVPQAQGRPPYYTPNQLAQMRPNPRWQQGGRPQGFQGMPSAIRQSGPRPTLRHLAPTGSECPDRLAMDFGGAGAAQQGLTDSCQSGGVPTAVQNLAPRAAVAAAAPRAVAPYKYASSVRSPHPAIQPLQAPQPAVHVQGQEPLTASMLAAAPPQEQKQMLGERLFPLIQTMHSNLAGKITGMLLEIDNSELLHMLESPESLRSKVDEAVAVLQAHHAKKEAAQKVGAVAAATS
UniProt Q96BN8, whole entry, looked up: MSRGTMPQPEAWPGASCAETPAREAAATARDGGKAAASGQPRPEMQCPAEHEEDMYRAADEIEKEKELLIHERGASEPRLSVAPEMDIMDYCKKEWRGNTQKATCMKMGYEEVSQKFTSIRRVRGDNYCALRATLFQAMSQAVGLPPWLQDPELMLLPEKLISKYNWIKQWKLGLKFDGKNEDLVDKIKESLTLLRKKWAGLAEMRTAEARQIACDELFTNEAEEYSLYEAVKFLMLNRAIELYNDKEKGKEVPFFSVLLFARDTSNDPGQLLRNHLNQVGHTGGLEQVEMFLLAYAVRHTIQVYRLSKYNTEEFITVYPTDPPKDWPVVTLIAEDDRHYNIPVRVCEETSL
UniProt Q7Z3B4: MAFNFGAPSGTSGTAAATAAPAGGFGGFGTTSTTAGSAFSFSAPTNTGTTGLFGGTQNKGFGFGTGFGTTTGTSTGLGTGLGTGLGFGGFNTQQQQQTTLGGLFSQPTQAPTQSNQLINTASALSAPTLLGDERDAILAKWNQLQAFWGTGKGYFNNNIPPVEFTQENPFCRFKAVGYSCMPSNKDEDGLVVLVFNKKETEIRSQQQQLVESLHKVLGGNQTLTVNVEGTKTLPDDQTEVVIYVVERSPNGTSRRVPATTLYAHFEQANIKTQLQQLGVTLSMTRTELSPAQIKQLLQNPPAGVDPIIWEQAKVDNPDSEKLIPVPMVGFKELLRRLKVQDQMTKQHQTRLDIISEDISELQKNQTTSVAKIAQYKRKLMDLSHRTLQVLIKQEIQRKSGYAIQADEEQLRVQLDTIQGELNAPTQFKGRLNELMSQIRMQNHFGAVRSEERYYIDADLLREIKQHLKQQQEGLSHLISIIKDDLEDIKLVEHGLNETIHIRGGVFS
UniProt Q8N1F7: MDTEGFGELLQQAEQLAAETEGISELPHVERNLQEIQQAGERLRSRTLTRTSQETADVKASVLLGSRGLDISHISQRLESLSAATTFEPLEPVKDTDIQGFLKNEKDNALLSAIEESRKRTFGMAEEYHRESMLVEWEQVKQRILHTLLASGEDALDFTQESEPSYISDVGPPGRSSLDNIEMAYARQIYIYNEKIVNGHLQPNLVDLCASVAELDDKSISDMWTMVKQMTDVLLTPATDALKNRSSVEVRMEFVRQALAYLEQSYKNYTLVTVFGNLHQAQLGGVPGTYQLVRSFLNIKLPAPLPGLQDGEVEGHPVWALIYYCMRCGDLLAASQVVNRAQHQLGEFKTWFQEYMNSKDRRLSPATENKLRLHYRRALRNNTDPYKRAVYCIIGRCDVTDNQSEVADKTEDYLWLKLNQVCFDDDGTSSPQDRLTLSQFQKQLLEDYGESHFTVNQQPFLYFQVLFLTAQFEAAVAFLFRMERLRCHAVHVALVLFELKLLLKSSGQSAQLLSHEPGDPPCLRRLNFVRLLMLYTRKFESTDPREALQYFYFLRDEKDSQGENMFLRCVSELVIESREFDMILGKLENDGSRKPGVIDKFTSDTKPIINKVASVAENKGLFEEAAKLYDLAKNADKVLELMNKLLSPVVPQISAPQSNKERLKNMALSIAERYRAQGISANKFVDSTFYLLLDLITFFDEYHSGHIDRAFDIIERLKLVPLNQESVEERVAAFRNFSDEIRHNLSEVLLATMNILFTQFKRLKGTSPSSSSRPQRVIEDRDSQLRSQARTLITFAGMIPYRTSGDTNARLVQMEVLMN
UniProt Q9BYG5: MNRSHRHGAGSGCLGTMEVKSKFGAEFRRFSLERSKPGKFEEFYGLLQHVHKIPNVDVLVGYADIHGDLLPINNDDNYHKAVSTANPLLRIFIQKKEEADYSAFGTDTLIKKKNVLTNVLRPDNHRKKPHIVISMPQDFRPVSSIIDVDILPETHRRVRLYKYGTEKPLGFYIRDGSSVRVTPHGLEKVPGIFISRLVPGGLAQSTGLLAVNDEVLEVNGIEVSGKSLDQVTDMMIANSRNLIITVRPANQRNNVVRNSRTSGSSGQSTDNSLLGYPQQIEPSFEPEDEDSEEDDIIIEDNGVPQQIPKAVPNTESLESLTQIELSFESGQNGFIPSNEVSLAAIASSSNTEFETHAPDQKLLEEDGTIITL
UniProt Q15102: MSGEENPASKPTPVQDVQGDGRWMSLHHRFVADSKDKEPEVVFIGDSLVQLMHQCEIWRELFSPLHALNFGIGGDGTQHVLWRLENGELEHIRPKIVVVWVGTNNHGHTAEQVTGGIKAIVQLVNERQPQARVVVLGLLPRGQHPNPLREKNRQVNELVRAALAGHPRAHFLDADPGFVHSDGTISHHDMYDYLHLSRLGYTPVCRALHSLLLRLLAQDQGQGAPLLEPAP
UniProt Q9UNF0: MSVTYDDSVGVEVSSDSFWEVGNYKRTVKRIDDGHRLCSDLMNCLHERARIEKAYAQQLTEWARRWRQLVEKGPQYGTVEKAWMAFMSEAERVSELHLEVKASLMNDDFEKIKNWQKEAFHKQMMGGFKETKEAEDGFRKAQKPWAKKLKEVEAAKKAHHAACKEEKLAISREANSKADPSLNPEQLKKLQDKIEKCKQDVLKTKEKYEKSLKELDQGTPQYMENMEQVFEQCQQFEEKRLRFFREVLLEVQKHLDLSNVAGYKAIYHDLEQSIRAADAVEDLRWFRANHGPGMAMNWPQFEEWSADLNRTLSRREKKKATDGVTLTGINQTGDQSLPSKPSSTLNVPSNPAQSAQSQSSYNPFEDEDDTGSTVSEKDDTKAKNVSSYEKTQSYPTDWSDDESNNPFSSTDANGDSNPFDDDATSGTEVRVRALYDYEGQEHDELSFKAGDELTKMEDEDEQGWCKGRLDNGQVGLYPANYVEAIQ
UniProt Q9H074: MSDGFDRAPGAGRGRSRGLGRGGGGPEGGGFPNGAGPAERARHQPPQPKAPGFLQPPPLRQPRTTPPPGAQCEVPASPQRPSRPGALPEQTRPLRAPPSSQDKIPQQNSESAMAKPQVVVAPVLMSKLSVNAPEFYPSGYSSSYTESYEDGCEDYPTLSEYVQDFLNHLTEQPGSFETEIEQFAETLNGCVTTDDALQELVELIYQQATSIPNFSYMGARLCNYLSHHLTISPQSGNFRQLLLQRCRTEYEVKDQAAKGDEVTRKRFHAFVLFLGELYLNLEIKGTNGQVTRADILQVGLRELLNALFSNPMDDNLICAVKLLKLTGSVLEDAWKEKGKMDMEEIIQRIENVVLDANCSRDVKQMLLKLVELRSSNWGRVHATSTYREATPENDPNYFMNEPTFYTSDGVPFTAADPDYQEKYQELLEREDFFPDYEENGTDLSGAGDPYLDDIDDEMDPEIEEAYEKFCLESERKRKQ
UniProt Q9NRP0: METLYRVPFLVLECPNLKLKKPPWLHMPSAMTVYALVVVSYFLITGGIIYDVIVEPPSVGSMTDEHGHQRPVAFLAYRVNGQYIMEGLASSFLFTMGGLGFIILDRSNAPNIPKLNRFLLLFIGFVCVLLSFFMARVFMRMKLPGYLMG
UniProt Q96SU4: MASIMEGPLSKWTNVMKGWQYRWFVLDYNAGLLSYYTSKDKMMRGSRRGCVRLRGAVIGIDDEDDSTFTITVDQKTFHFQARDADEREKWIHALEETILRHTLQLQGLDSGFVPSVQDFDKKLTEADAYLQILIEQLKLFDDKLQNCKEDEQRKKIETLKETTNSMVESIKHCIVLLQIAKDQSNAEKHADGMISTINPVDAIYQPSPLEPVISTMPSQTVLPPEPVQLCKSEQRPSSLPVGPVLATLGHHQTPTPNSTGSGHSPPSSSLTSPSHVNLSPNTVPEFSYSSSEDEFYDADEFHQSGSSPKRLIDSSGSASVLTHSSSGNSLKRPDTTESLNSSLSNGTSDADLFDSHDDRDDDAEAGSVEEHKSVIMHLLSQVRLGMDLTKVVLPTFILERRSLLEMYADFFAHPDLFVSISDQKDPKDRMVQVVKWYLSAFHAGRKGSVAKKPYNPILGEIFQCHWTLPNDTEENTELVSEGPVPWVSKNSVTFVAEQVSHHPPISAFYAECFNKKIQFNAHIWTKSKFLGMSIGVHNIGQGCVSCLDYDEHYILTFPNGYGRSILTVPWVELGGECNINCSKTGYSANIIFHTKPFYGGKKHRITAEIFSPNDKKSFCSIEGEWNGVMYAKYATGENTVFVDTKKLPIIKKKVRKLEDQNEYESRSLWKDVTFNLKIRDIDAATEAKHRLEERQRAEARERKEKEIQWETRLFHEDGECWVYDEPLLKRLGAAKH
UniProt Q9BRP4: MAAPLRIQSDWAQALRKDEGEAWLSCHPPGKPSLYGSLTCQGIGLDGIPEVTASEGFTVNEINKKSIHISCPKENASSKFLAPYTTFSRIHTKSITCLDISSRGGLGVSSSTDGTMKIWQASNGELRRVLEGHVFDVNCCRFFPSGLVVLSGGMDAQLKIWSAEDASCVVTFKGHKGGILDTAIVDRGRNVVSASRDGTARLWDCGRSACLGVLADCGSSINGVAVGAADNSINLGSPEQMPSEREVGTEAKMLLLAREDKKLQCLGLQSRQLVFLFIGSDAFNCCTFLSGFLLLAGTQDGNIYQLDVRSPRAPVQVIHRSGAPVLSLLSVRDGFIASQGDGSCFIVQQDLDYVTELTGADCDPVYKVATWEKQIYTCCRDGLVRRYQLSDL
UniProt Q86W56: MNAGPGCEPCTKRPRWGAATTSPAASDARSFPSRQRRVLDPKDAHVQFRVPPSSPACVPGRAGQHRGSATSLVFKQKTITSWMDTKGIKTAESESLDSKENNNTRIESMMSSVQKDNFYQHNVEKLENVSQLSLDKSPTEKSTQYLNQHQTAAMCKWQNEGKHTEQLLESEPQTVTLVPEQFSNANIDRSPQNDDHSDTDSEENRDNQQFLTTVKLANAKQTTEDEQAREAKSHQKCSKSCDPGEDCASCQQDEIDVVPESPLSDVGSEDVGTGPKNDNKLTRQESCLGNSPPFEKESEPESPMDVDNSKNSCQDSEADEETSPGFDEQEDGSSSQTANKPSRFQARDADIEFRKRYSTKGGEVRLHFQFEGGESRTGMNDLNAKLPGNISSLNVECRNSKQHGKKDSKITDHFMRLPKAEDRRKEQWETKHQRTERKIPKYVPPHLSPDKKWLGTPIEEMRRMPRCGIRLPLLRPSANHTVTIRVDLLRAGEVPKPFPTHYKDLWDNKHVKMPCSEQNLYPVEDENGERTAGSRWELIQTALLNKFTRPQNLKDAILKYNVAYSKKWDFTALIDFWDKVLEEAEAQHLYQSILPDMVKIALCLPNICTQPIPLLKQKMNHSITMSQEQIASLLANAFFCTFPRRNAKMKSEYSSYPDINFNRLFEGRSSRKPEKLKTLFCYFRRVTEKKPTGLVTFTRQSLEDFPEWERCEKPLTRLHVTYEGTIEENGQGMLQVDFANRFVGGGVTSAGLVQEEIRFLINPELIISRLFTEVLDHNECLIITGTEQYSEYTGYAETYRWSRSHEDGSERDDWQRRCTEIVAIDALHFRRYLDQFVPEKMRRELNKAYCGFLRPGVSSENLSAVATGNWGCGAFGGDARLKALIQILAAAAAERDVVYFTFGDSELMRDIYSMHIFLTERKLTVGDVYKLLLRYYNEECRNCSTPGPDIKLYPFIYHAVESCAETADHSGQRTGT
UniProt Q9Y5N6: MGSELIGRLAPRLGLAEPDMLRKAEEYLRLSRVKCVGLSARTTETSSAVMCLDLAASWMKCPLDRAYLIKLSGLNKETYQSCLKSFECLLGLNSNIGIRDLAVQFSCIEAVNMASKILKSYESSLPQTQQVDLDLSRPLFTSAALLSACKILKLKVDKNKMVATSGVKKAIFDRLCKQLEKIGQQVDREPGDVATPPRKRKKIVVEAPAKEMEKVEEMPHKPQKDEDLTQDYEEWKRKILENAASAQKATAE

This is one part of the list.

Compound in this test: Cc1sc2c(c1C)C(c1ccc(Cl)cc1)=N[C@@H](CC(=O)OC(C)(C)C)c1nnc(C)n1-2
Briefly: log2 fold change, soluble protein after heating vs DMSO (PISA); higher = thermal stabilisation; K562 lysate, 10 uM; active = over 0.2 and 3.5 SD of the protein, either way, in both replicates (recomputed). A digest of the protocol:
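Dounce homogenisation of K562 pellets in PBS pH 7.4 with 1 mM MgCl2 produced a crude extract, used at 1 mg/mL protein. Exposure to 10 μM compound lasted 30 min, and aliquots were then heated for 3 min across 48°C-58°C, pooled and brought to 0.5% NP-40 at 4°C. The supernatant after 21,000xg for 90 min was quantified by TMTpro 16plex LC-MS/MS with channel sums equalised. Duplicate values are given as log-two fold change in thermal stability relative to solvent controls.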
Turning to PANK3 (UniProt Q9H999), the log2 fold change is inactive: -0.054.

With PARK7 (UniProt Q99497), the log2 fold change was inactive: -0.001.

On to OSBPL3 isoform 2 (UniProt Q9H4L5), for which the log2 fold change is inactive: -0.017.

For PABPC4 isoform 3 (UniProt Q13310), the log2 fold change is inactive: 0.008.

In the case of PAGR1 (UniProt Q9BTK6), the log2 fold change is inactive: -0.011.

Take PAICS (UniProt E9PBS1): the log2 fold change was inactive: 0.072.

OXA1L (UniProt Q15070): the log2 fold change is inactive: 0.016.

For the target OTULIN (UniProt Q96BN8), the log2 fold change is inactive: 0.108.

On to NUP188 (UniProt Q5SRE5), for which the log2 fold change is inactive: -0.001.

Consider NUP54 (UniProt Q7Z3B4), for which the log2 fold change was inactive: -0.03.

Take OTUD4 (UniProt Q01804): the log2 fold change was inactive: -0.017.

Take NUP93 (UniProt Q8N1F7): the log2 fold change was inactive: 0.007.

Turning to PARD6B (UniProt Q9BYG5), the log2 fold change was inactive: 0.007.

On to PAFAH1B3 (UniProt Q15102), for which the log2 fold change was inactive: 0.047.

As to OGFR (UniProt Q9NZT2), the log2 fold change was inactive: -0.038.

Regarding PACSIN2 (UniProt Q9UNF0), the log2 fold change was inactive: 0.011.

As to PAIP1 (UniProt Q9H074), the log2 fold change is inactive: 0.096.

As to OMA1 (UniProt Q96E52), the log2 fold change was inactive: 0.015.

Consider OIP5 (UniProt O43482), for which the log2 fold change is inactive: -0.048.

On to OSTC isoform 2 (UniProt Q9NRP0), for which the log2 fold change was inactive: -0.058.

Turning to OSBPL9 isoform 2 (UniProt Q96SU4), the log2 fold change was inactive: 0.005.

In the case of OCRL (UniProt Q01968), the log2 fold change is inactive: 0.013.

Turning to OTUD6B (UniProt Q8N6M0), the log2 fold change was inactive: 0.024.

OSTC (UniProt Q9NRP0): the log2 fold change is inactive: -0.109.

Regarding OSBPL6 isoform 5 (UniProt Q9BZF3), the log2 fold change was inactive: 0.023.

Regarding ORC2 (UniProt Q13416), the log2 fold change was inactive: 0.025.

Regarding OSBPL8 (UniProt Q9BZF1), the log2 fold change was inactive: -0.038.

As for NUP214 (UniProt P35658), the log2 fold change was inactive: -0.034.

As to PAAF1 (UniProt Q9BRP4), the log2 fold change is inactive: 0.048.

As to PARG (UniProt Q86W56), the log2 fold change was inactive: -0.004.

As to ORC6 (UniProt Q9Y5N6), the log2 fold change is inactive: 0.006.

With OBI1 (UniProt Q5W0B1), the log2 fold change was inactive: -0.059.
